Measurements reported in PubChem BioAssay AID652243 (Drosophila RNAi Screening Center, 2013)
The screen tested about 24,000 reagents; shown is an unselected part of those that have a named target and a result. Over the whole deposit, 246 (1%) are marked active. 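Plates not normalised; calls are printed but the firefly/Renilla ratio behind them is not deposited; fold cut for lowering reported inconsistently.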 Raw values vary from plate to plate and are shown uncorrected. Names joined by + are all predicted targets of the reagent. Reagent sequences are not shown. The record does not give: the amount of reagent.

Purpose: 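Knock-downs that decrease or increase androgen receptor reporter signal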 (primary screen)
Cells: Drosophila S2R+ cells
Reagent: long dsRNA against Drosophila genes
Time to read-out: 72 h (48 h, then 24 h hormone)
Treatment: synthetic androgen R1881 at 10 nM for 24 h
Measurement: 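Per-well raw luminescence of the androgen-driven firefly reporter and of the Renilla control, two replicates each, without normalisation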
Reading the numbers: firefly reporter light: higher = more light from androgen-responsive reporter; Renilla control light: higher = more constitutive control signal (cell number, transfection)
Hit rule: 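Across duplicate plates, a knock-down whose log firefly/Renilla ratio shifted a set fold down or up from the GFP/LacZ control mean was a hit; the downward cut appears as both 1.5 and 3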
Meaning of the calls: active = hit: reporter lowered or raised; inactive = no hit

| gene | PubChem SID | firefly reporter light, replicate 1 | firefly reporter light, replicate 2 | Renilla control light, replicate 1 | Renilla control light, replicate 2 | Call |
| --- | --- | --- | --- | --- | --- | --- |
| sqd | SID104194952 | 1.68e5 | 1.38e5 | 2.93e6 | 2.58e6 | inactive |
| sqd | SID104196858 | 4.10e5 | 4.07e5 | 2.81e6 | 3.54e6 | inactive |
| sqd | SID104202311 | 2.82e5 | 6.65e5 | 7.08e5 | 1.52e6 | inactive |
| sqd | SID104205744 | 3.14e5 | 1.74e5 | 7.59e5 | 6.73e5 | inactive |
| sqd | SID104208323 | 2.36e5 | 3.09e5 | 1.21e6 | 7.78e5 | inactive |
| SmD1 | SID104189592 | 2.39e5 | 2.23e5 | 2.33e6 | 1.91e6 | inactive |
| SmD1 | SID104207115 | 1.16e6 | 1.76e6 | 1.13e6 | 1.71e6 | inactive |
| yata | SID104195200 | 1.40e5 | 1.57e5 | 1.25e6 | 1.86e6 | inactive |
| yata | SID104214536 | – | – | – | – | inactive |
| yata | SID104214537 | – | – | – | – | inactive |
| sm | SID104185587 | 80390 | 85649 | 2.57e5 | 3.21e5 | inactive |
| sm | SID104187478 | 1.45e6 | 1.51e6 | 2.08e6 | 1.25e6 | inactive |
| CG4907 | SID104195465 | 2.03e5 | 2.19e5 | 2.63e6 | 2.43e6 | inactive |
| CG13361 | SID104197688 | 1.15e5 | 1.89e5 | 2.96e6 | 3.01e6 | inactive |
| CG13361 | SID104208272 | 5.57e5 | 4.54e5 | 1.56e6 | 1.74e6 | inactive |
| Drsl3 | SID104202040 | 8.13e5 | 7.60e5 | 8.18e5 | 6.69e5 | inactive |
| Drsl3 | SID104207805 | 6.42e5 | 3.97e5 | 1.36e6 | 1.28e6 | inactive |
| tau | SID104202403 | 7.99e5 | 9.31e5 | 8.53e5 | 9.15e5 | inactive |
| slmo + CG34179 | SID104182935 | 3.07e5 | 5.58e5 | 1.20e6 | 1.37e6 | inactive |
| CG15115 | SID104186329 | 5.04e5 | 6.28e5 | 3.59e6 | 4.44e6 | inactive |
| CG2839 | SID104180336 | 1.15e5 | 1.09e5 | 9.01e5 | 9.06e5 | inactive |
| CG2839 | SID104206634 | 4.48e5 | 4.27e5 | 1.37e6 | 1.34e6 | inactive |
| Adgf-A | SID104190358 | 33567 | 51483 | 4.15e5 | 3.86e5 | inactive |
| Adgf-A | SID104203260 | 6.65e5 | 5.35e5 | 8.38e5 | 7.81e5 | inactive |
| Loxl2 | SID104184261 | 9.62e5 | 6.22e5 | 1.43e6 | 1.33e6 | inactive |
| CG12920 | SID104186026 | 1.75e5 | 2.13e5 | 1.08e6 | 7.57e5 | inactive |
| PGRP-LE | SID104199929 | 96646 | 1.48e5 | 7.39e5 | 7.58e5 | inactive |
| CG11125 | SID104185834 | 1.46e5 | 1.41e5 | 1.39e6 | 1.37e6 | inactive |
| CG3842 | SID104198118 | 1.86e5 | 1.80e5 | 1.98e6 | 2.24e6 | inactive |
| CG3842 | SID104205128 | 3.19e5 | 3.31e5 | 7.07e5 | 6.23e5 | inactive |
| tacc | SID104191811 | 2.49e5 | 73858 | 4.57e5 | 1.64e5 | inactive |
| tacc | SID104192180 | 8.38e5 | 8.77e5 | 1.57e6 | 1.86e6 | inactive |
| tacc | SID104207596 | 3.83e5 | 3.82e5 | 1.71e6 | 1.28e6 | inactive |
| CG31368 | SID104194741 | 1.11e5 | 1.07e5 | 1.49e6 | 1.78e6 | inactive |
| CG31368 | SID104194743 | 74330 | 76487 | 4.94e5 | 6.39e5 | inactive |
| Cdk12 | SID104191628 | 47661 | 48979 | 3.22e5 | 3.55e5 | inactive |
| Cdk12 | SID104202680 | 7.01e5 | 7.05e5 | 1.55e6 | 1.38e6 | inactive |
| Cdk12 | SID104208167 | 2.83e5 | 2.49e5 | 5.39e5 | 5.39e5 | inactive |
| Cyp28c1 | SID104200028 | 2.98e5 | 3.29e5 | 4.17e6 | 3.04e6 | inactive |
| Hsp83 | SID104188456 | 2.73e5 | 2.82e5 | 2.26e6 | 3.10e6 | inactive |
| Hsp83 | SID104203598 | 4.46e5 | 3.26e5 | 4.12e5 | 3.80e5 | inactive |
| H | SID104196484 | 4.23e5 | 3.97e5 | 3.16e6 | 3.56e6 | inactive |
| H | SID104205162 | 2.45e5 | 2.36e5 | 6.37e5 | 7.47e5 | inactive |
| CG7990 | SID104199088 | 7.95e5 | 9.26e5 | 1.57e6 | 1.39e6 | inactive |
| CG7990 | SID104202552 | 8.69e5 | 8.11e5 | 1.59e6 | 1.40e6 | inactive |
| CG7990 | SID104205124 | 3.69e5 | 2.79e5 | 6.71e5 | 7.70e5 | inactive |
| Gpa2 | SID104216340 | 1.38e6 | 1.05e6 | 2.70e6 | 1.82e6 | inactive |
| CG8728 | SID104187043 | 1.13e6 | 4.13e5 | 1.52e6 | 7.93e5 | inactive |
| lncRNA:CR41443 | SID104216322 | 8.92e5 | 4.33e5 | 1.94e6 | 1.33e6 | inactive |
| tal-1A + tal-2A + tal-AA + 1 more | SID104192784 | 93829 | 76919 | 90531 | 2.26e5 | inactive |
| CG43292 | SID104201259 | 5.71e5 | 4.89e5 | 2.26e6 | 2.09e6 | inactive |
| ProtB | SID104183165 | 1.33e5 | 1.51e5 | 1.56e6 | 1.60e6 | inactive |
| ProtB | SID104205971 | 2.78e5 | 3.03e5 | 7.53e5 | 7.80e5 | inactive |
| sit | SID104195552 | 3.19e5 | 2.84e5 | 2.88e6 | 2.97e6 | inactive |
| sit | SID104203796 | 1.22e6 | 9.51e5 | 1.13e6 | 1.14e6 | inactive |
| CG30265 | SID104201299 | 6.56e5 | 6.21e5 | 1.81e6 | 2.19e6 | inactive |
| CG10628 | SID104181872 | 1.08e5 | 1.39e5 | 9.68e5 | 1.55e6 | inactive |
| Gfrl | SID104194988 | 2.44e5 | 3.10e5 | 3.60e6 | 2.99e6 | inactive |
| Gfrl | SID104194989 | 68950 | 1.01e5 | 8.08e5 | 8.67e5 | inactive |
| Gfrl | SID104194991 | 2.65e5 | 2.63e5 | 1.84e6 | 3.11e6 | inactive |
| Gfrl | SID104195357 | 1.11e5 | 80935 | 5.29e5 | 5.39e5 | inactive |
| Gfrl | SID104195511 | 2.46e5 | 3.05e5 | 3.51e6 | 3.30e6 | inactive |
| Gfrl | SID104203931 | 6.19e5 | 6.01e5 | 6.80e5 | 5.77e5 | inactive |
| Gfrl | SID104204676 | 2.43e5 | 2.16e5 | 6.56e5 | 5.13e5 | inactive |
| Gfrl | SID104206354 | 5.58e5 | 6.02e5 | 3.67e5 | 4.84e5 | inactive |
| Gfrl | SID104207352 | 3.46e5 | 4.73e5 | 1.86e6 | 1.83e6 | inactive |

Targets listed so far whose gene name starts with G or g:
| gene | PubChem SID | firefly reporter light, replicate 1 | firefly reporter light, replicate 2 | Renilla control light, replicate 1 | Renilla control light, replicate 2 | Call |
| --- | --- | --- | --- | --- | --- | --- |
| Gpa2 | SID104216340 | 1.38e6 | 1.05e6 | 2.70e6 | 1.82e6 | inactive |
| Gfrl | SID104194988 | 2.44e5 | 3.10e5 | 3.60e6 | 2.99e6 | inactive |
| Gfrl | SID104194989 | 68950 | 1.01e5 | 8.08e5 | 8.67e5 | inactive |
| Gfrl | SID104194991 | 2.65e5 | 2.63e5 | 1.84e6 | 3.11e6 | inactive |
| Gfrl | SID104195357 | 1.11e5 | 80935 | 5.29e5 | 5.39e5 | inactive |
| Gfrl | SID104195511 | 2.46e5 | 3.05e5 | 3.51e6 | 3.30e6 | inactive |
| Gfrl | SID104203931 | 6.19e5 | 6.01e5 | 6.80e5 | 5.77e5 | inactive |
| Gfrl | SID104204676 | 2.43e5 | 2.16e5 | 6.56e5 | 5.13e5 | inactive |
| Gfrl | SID104206354 | 5.58e5 | 6.02e5 | 3.67e5 | 4.84e5 | inactive |
| Gfrl | SID104207352 | 3.46e5 | 4.73e5 | 1.86e6 | 1.83e6 | inactive |
